From article PMC8620773
These are yes or no findings as the source states them, for the method shown. Binding seen in cells or lysates may run through a third protein. Some binding calls cover weakened binding; strength is not graded here.

Amino acid sequences for entries named in this document (tags omitted). A change or cut given only in a name is not applied to a line headed by its entry.
UniProt P28066, whole entry: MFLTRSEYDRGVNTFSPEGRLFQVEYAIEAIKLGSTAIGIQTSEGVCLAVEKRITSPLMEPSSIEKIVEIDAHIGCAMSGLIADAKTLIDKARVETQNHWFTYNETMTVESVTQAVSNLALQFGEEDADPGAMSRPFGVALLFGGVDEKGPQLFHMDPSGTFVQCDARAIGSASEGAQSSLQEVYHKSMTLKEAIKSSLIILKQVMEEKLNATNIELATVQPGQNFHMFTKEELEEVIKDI

Target: α5 (S16A)-TBHA (UniProt P28066)
Assay: pull-down; High Capacity Streptavidin Agarose captures the biotinylated TBHA-tagged bait from lysates of stably expressing 293T cells (TBSN buffer: 50 mM Tris pH 7.5, 125 mM NaCl, 0.5% NP-40, 1 mM ATP, 5 mM MgCl2), 4 °C; Western blot; cells with or without nocodazole (100 ng/mL, 16 h)

Row | Substance | binding
1 | endogenous α5 (from UniProt P28066-1 1-241) | binds
2 | HA-PLK1 (from UniProt P53350 1-603) (enzyme) | binds
